Test results taken from the supplement of paper PMC10338343.
± gives the standard deviation. The list shows a part of the results, in another mix than the full data. Many entries were measured with a wide error. The list shows a part of the results.

Key:
[1] = tested on: MILI (PIWIL2) piRISC loaded with L1MC piRNA (26 nt); test: pre-steady-state target cleavage rate (min^-1); higher = faster piRNA-guided slicing of the target; settings: guide: L1MC piRNA 5'p-UAACUAAAUACUAUGCAAGCUGUAGG
Outline: (§1)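 At 33 °C in HEPES–potassium acetate buffer, a transcribed, DNA-blocked target RNA library […] was exposed for 0–8 or 0–960 min to 1 nM active affinity-purified piRISC carrying a single synthetic guide, with or without 500 nM GTSF1 partner protein. Uncleaved targets were sequenced and normalised to depth and to weakly complementary targets. With three trials pooled and k3 capped at 0.0001 min^-1, a burst-and-steady-state fit produced the pre-steady-state cleavage rate.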

[2] = tested on: MIWI (PIWIL1) piRISC loaded with L1MC piRNA (30 nt); test: as above; settings: guide: L1MC piRNA 5'p-UAACUAAAUACUAUGCAAGCUGUAGGUCCU
Outline: as §1

[3] = tested on: EfPiwi piRISC loaded with L1MC piRNA (26 nt); test: pre-steady-state target cleavage rate (min^-1); guide: L1MC piRNA 5'p-UAACUAAAUACUAUGCAAGCUGUAGG; MIWI and MILI are mouse PIWI proteins and EfPiwi is from a freshwater sponge; tags in brackets are library labels; higher = faster piRNA-guided slicing of the target
Outline: as §1

[4] = auxiliary factor: none (no GTSF1)
[5] = auxiliary factor: 500 nM mouse GTSF1
[6] = auxiliary factor: 500 nM Ephydatia muelleri Gtsf1
[7] = auxiliary factor: none (no Gtsf1)

| Sequence | pre-steady-state target cleavage rate [1, 4] | pre-steady-state target cleavage rate [2, 5] | pre-steady-state target cleavage rate [2, 4] | pre-steady-state target cleavage rate [3, 6] | pre-steady-state target cleavage rate [3, 7] | pre-steady-state target cleavage rate [1, 5] |
| --- | --- | --- | --- | --- | --- | --- |
| UCCUGGAUGUCGAUGCAUAAUAUUUAGUUA | 0.00215 ± 0.0025 | 0.00262 ± 0.0052 | 0.000503 ± 0.014 | 0.000575 ± 0.0057 | 0.00019 ± 0.039 |  |
| UCCUGGAUGUCGAACGAAUCUAUUUAGUUA | < 0.0001 | 0.00039 ± 0.016 | 0.00033 ± 0.016 | 0.000117 ± 0.023 | 0.0001 ± 0.051 |  |
| UCCUGGAUGUCGAUGCAUAGUCAUUUAGUUA | 0.00241 ± 0.0032 | 0.00277 ± 0.0044 | 0.00272 ± 0.0039 | 0.000298 ± 0.011 | < 0.0001 |  |
| UCCUGGAUCAGCUUGGUUAGUAUUUUCAAA | 0.000983 ± 0.0073 | 0.00103 ± 0.011 | 0.000558 ± 0.014 | 0.000281 ± 0.019 | 0.000236 ± 0.041 |  |
| UCCUGGAUGAGCAACCAUAGUAUUUAGUUA | 0.00186 ± 0.0037 | 0.00173 ± 0.005 | 0.000335 ± 0.012 | 0.00159 ± 0.0037 | 0.000276 ± 0.031 |  |
| UCCUGCUACAGCUUGCUUAGAAUUUAGUUA | 0.00198 ± 0.0034 | 0.247 ± 0.026 | 0.00845 ± 0.0029 | 0.00357 ± 0.0018 | 0.000534 ± 0.012 |  |
| UCCUGGUACAGCUUGCAUAGUAAAAAGUAA | 0.00133 ± 0.0032 | 0.109 ± 0.031 | 0.00151 ± 0.0037 | 0.00315 ± 0.0036 | 0.000255 ± 0.041 |  |
| UCCUGGAUCAGCUUGCAUAGGUAUUUAGUUA |  | 0.00271 ± 0.005 | 0.00128 ± 0.0077 | 0.00153 ± 0.004 | 0.000245 ± 0.033 | 0.00375 ± 0.0051 |
| UCCUGGAUGUCCAUGCAUUGUAUUUAGUUA | 0.00215 ± 0.0036 | 0.00336 ± 0.0043 | 0.000938 ± 0.0086 | 0.00235 ± 0.0042 | 0.000423 ± 0.015 |  |
| UCCUGGAUGUCGUUGCAUAGUAUUUAGCUA | 0.00045 ± 0.013 | 0.00197 ± 0.0056 | 0.00116 ± 0.0063 | 0.000503 ± 0.0084 | < 0.0001 |  |
| UCCUGGAUGAGCUUGCAUAGUAUUAGUUA | 0.000845 ± 0.011 | 0.00334 ± 0.0036 | 0.00227 ± 0.0036 | 0.00121 ± 0.0031 | 0.000262 ± 0.02 |  |
| UCCUGGAUGUCCUUGCAUAGUAAAUAGUAA | 0.00143 ± 0.0049 | 0.00157 ± 0.0068 | 0.00155 ± 0.0048 | 0.000648 ± 0.0075 | 0.000424 ± 0.014 |  |
| UCCUGGAUGUCGUUGCAUAGUAUUUAGGUA | 0.00254 ± 0.004 | 0.00144 ± 0.0083 | 0.00244 ± 0.0032 | 0.000854 ± 0.0065 | 0.000421 ± 0.024 |  |
| UCCUGGAUGAGCUUCCAUAGUAUUAAGUUA | 0.000536 ± 0.0099 | 0.00472 ± 0.0052 | 0.000501 ± 0.0086 | 0.000443 ± 0.0093 | 0.000256 ± 0.027 |  |
| UCCUGGAUGUCGUUCCAUAGUAUUUAGUUA | 0.000371 ± 0.017 | 0.00174 ± 0.0066 | 0.000573 ± 0.012 | 0.000363 ± 0.0079 | 0.000189 ± 0.029 |  |
| UCCUGGUACAGCUUGCAUAGUAUUCUAGUUA |  | 0.442 ± 0.092 | 0.00651 ± 0.0028 | 0.0044 ± 0.003 | 0.000329 ± 0.042 | 0.353 ± 0.088 |
| UCCUGGUACAGCUUCGUUAGUAUUUACAAA | 0.000567 ± 0.011 | 0.00102 ± 0.01 | 0.000537 ± 0.011 | 0.00067 ± 0.007 | 0.000425 ± 0.016 |  |
| UCCUGGUACAGCUUGCAUAGAUUUUACAAA | 0.00151 ± 0.0044 | 0.00227 ± 0.0058 | 0.00105 ± 0.0047 | 0.000829 ± 0.0044 | 0.000534 ± 0.014 |  |

An excerpt of these results, as labelled records.
UCCUGGAUGUCGAACGAAUCUAUUUAGUUA
  pre-steady-state target cleavage rate [1, 4] = < 0.0001
  pre-steady-state target cleavage rate [2, 5] = 0.00039 ± 0.016
  pre-steady-state target cleavage rate [2, 4] = 0.00033 ± 0.016
  pre-steady-state target cleavage rate [3, 6] = 0.000117 ± 0.023
  pre-steady-state target cleavage rate [3, 7] = 0.0001 ± 0.051
UCCUGGUACAGCUUCGUUAGUAUUUACAAA
  pre-steady-state target cleavage rate [1, 4] = 0.000567 ± 0.011
  pre-steady-state target cleavage rate [2, 5] = 0.00102 ± 0.01
  pre-steady-state target cleavage rate [2, 4] = 0.000537 ± 0.011
  pre-steady-state target cleavage rate [3, 6] = 0.00067 ± 0.007
  pre-steady-state target cleavage rate [3, 7] = 0.000425 ± 0.016
